PubChem BioAssay AID652272 – Drosophila RNAi Screening Center | 2013
Purpose: 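Genome-wide knock-down search for components of Hedgehog signalling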 (primary screen). Cell system: Drosophila clone 8 (Cl8) cells. Reagents: long dsRNA against Drosophila genes. Measurement: 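Firefly light from a Hedgehog-responsive ptc promoter reporter and Renilla reference light, both read on a plate reader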. Scale: firefly Hh reporter signal: higher = more ptc reporter light; Renilla reference signal: higher = more Renilla control light. Call rule: 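Hit when the z-score averaged over two replicates is under -2 or over +3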. Calls: active = hit: reporter lowered or raised; inactive = not a hit.
In all, the deposit lists about 21,000 reagents; this is a random part of those with a known target gene and a result. Over the whole deposit, 503 (2.4%) were called active. 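Raw plate light values, not normalised; calls rest on replicate z-scores that were not deposited; hits include reporter decreases as well as increases.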 Entries without a mark were called inactive. Reagents against one gene are numbered here. A plus sign joins genes that one reagent is predicted to hit. The record does not give: the amount of reagent, the time to read-out.

| predicted target | reagent no. | firefly Hh reporter signal, replicate 1 | firefly Hh reporter signal, replicate 2 | firefly Hh reporter signal, replicate 3 | Renilla reference signal, replicate 1 | Renilla reference signal, replicate 2 |
| --- | --- | --- | --- | --- | --- | --- |
| CG43610 (GeneID 12798580) | 1 | 5.27e5 | 1.87e5 | – | 24977 | 7184 |
| CG6149 (GeneID 39277) | 1 | 52016 | 35457 | 47612 | 2736 | 3209 |
| CG43163 (GeneID 38966) | 1 | 66401 | 46806 | – | 10154 | 4162 |
| CG13096 (GeneID 34183) | 1 | 67981 | 34768 | – | 2064 | 4107 |
| Fur1 (GeneID 47220) | 1 | 50041 | 2.41e5 | – | 12104 | 5700 |
| Fur1 (GeneID 47220) | 2 | 74841 | 1.15e5 | – | 1136 | 2939 |
| CG6659 (GeneID 32854) | 1 | 1.54e5 | 80835 | – | 3561 | 1697 |
| CG17764 (GeneID 31440) | 1 | 51248 | 1.34e5 | – | 1556 | 4867 |
| Msp300 (GeneID 3771968) | 1 | 5.98e5 | 1.87e5 | – | 28339 | 7955 |
| Msp300 (GeneID 3771968) | 2 | 6.86e5 | 2.22e5 | – | 33333 | 10138 |
| Msp300 (GeneID 3771968) | 3 | 6.42e5 | 2.34e5 | – | 32844 | 9931 |
| Msp300 (GeneID 3771968) | 4 | 4.98e5 | 1.68e5 | – | 23068 | 7421 |
| Msp300 (GeneID 3771968) | 5 | 85520 | 45240 | – | 2554 | 4096 |
| Msp300 (GeneID 3771968) | 6 | 68080 | 57475 | – | 3408 | 2624 |
| Msp300 (GeneID 3771968) | 7 | 1.16e5 | 61817 | – | 3120 | 6394 |
| Mkp3 (GeneID 40081) | 1 | 1.18e5 | 83433 | – | 5066 | 3168 |
| Mkp3 (GeneID 40081) | 2 | 77077 | 80514 | – | 2840 | 3128 |
| CG15118 (GeneID 37199) | 1 | 1.26e5 | 1.14e5 | – | 5244 | 4304 |
| pav (GeneID 38515) | 1 | 77476 | 41011 | – | 2249 | 171 |
| r2d2 (GeneID 34066) | 1 | 1.21e5 | 54661 | – | 3088 | 6068 |
| Alp4 (GeneID 43671) | 1 | 90099 | 1.68e5 | – | 2979 | 4567 |
| dysc (GeneID 39533) | 1 | 28317 | 69856 | 4.10e5 | 3088 | 3451 |
| dysc (GeneID 39533) | 2 | 47555 | 89244 | 43704 | 5242 | 2972 |
| CG13082 (GeneID 35244) | 1 | 73986 | 41468 | – | 2144 | 4001 |
| CG10211 (GeneID 35106) | 1 | 93175 | 52731 | – | 2424 | 2715 |
| CG4338 (GeneID 41849) | 1 | 77690 | 74020 | – | 3090 | 2922 |
| Polr2F (GeneID 48312) | 1 | 72825 | 95363 | – | 2260 | 2154 |
| CG10097 + CG10096 | 1 | 1.06e5 | 92785 | – | 4523 | 3792 |
| CG10097 + CG10096 | 2 | 67952 | 1.35e5 | – | 2599 | 3175 |
| CG12116 (GeneID 31782) | 1 | 85466 | 2.50e5 | – | 2810 | 9501 |
| CG6674 (GeneID 39174) | 1 | 81200 | 45901 | – | 4053 | 2049 |
| CG13742 + CNT1 | 1 | 77340 | 58376 | – | 2056 | 4882 |
| Obp85a (GeneID 41006) | 1 | 47789 | 98763 | – | 1402 | 2905 |
| CG13607 (GeneID 42859) | 1 | 6.24e5 | 1.04e5 | – | 29786 | 3373 |
| Arl5 (GeneID 38931) | 1 | 90737 | 65523 | – | 4033 | 2556 |
| AOX2 (GeneID 41895) | 1 | 88229 | 67096 | – | 1760 | 2016 |

Targets above whose gene name starts with F or f (2):
| predicted target | reagent no. | firefly Hh reporter signal, replicate 1 | firefly Hh reporter signal, replicate 2 | firefly Hh reporter signal, replicate 3 | Renilla reference signal, replicate 1 | Renilla reference signal, replicate 2 |
| --- | --- | --- | --- | --- | --- | --- |
| Fur1 (GeneID 47220) | 1 | 50041 | 2.41e5 | – | 12104 | 5700 |
| Fur1 (GeneID 47220) | 2 | 74841 | 1.15e5 | – | 1136 | 2939 |

The list goes on:
| predicted target | reagent no. | firefly Hh reporter signal, replicate 1 | firefly Hh reporter signal, replicate 2 | firefly Hh reporter signal, replicate 3 | Renilla reference signal, replicate 1 | Renilla reference signal, replicate 2 |
| --- | --- | --- | --- | --- | --- | --- |
| Socs16D (GeneID 32760) | 1 | 53306 | 2.18e5 | – | 2236 | 10068 |
| CG13627 (GeneID 42941) | 1 | 5.24e5 | 1.00e5 | – | 26013 | 2409 |
| CG4375 (GeneID 33278) | 1 | 1.17e5 | 67256 | – | 2593 | 1600 |
| yata (GeneID 43508) | 1 | 51737 | 93388 | – | 1392 | 2728 |
| betaggt-I (GeneID 33704) | 1 | 1.27e5 | 42973 | – | 2992 | 4648 |
| Spt3 (GeneID 41461) | 1 | 1.02e5 | 91453 | – | 3621 | 3000 |
| parvin (GeneID 32990) | 1 | 76560 | 2.01e5 | – | 1321 | 8176 |
| CG34292 (GeneID 5740196) | 1 | 48352 | 2.53e5 | – | 12631 | 5800 |
| CG6908 (GeneID 41410) | 1 | 55944 | 83120 | – | 1751 | 2800 |
| CG14722 (GeneID 41419) | 1 | 1.25e5 | 86480 | – | 5472 | 3957 |
| Tango10 (GeneID 32125) | 1 | 2.18e5 | 1.26e5 | – | 4232 | 3248 |
| CycC (GeneID 41801) | 1 | 1.25e5 | 85880 | – | 6752 | 3789 |
| Cpr50Ca (GeneID 36523) | 1 | 1.36e5 | 3.36e5 | – | 11828 | 12657 |
| Cpr50Ca (GeneID 36523) | 2 | 1.12e5 | 67754 | – | 3032 | 4768 |
| Cpr50Ca (GeneID 36523) | 3 | 98597 | 64464 | – | 2299 | 4917 |
| CG32459 (GeneID 40502) | 1 | 1.10e5 | 1.40e5 | – | 3888 | 3237 |
| CG1314 (GeneID 33066) | 1 | 1.25e5 | 1.33e5 | – | 3480 | 2928 |
| CG9578 (GeneID 33018) | 1 | 1.89e5 | 1.35e5 | – | 4000 | 2944 |
| lov (GeneID 38007) | 1 | 1.10e5 | 83129 | – | 2027 | 7333 |
| CG14340 (GeneID 33287) | 1 | 1.06e5 | 92668 | – | 2620 | 2313 |
| CG5885 (GeneID 34314) | 1 | 1.04e5 | 54773 | – | 4048 | 2352 |
| Con (GeneID 38590) | 1 | 67632 | 72585 | – | 2870 | 2612 |
| CIA30 (GeneID 43503) | 1 | 1.11e5 | 1.29e5 | – | 2361 | 3573 |
| CG31735 (GeneID 318922) | 1 | 82113 | 1.81e5 | – | 2241 | 7988 |
| sncRNA:430e + His2A:CG33859 + His2A:CG33817 + 37 more | 1 | 44578 | 55801 | – | 2804 | 2600 |
| Mgat2 (GeneID 43563) | 1 | 86587 | 77722 | – | 2438 | 2225 |
| CG4770 (GeneID 42375) | 1 | 5.99e5 | 1.05e5 | – | 33148 | 2995 |
| Phlpp (GeneID 35178) | 1 | 1.27e5 | 57525 | – | 2934 | 4803 |
| St4 (GeneID 36548) | 1 | 68832 | 74083 | – | 1888 | 4790 |
| Nepl13 (GeneID 42699) | 1 | 4.86e5 | 69283 | – | 24533 | 2333 |
| Ilp6 (GeneID 31220) | 1 | 74365 | 2.50e5 | – | 2128 | 9344 |
| l(2)k09848 (GeneID 35536) | 1 | 1.18e5 | 66077 | – | 5648 | 3600 |
| OSCP1 (GeneID 36300) | 1 | 85848 | 36034 | – | 1680 | 2676 |
| cpa (GeneID 37387) | 1 | 65115 | 39498 | – | 2570 | 1558 |
| CG12206 (GeneID 31316) | 1 | 76857 | 2.71e5 | – | 1736 | 9793 |
| CG13460 (GeneID 39638) | 1 | 72101 | – | – | 1509 | 2070 |
| CG7382 (GeneID 33772) | 1 | 56220 | 49287 | – | 2825 | 2811 |
